Reference: the supplement of paper PMC10849652
The list shows a part of the results.

The chains behind the UniProt entries cited, without tags or fusion partners. Where a name states a change or a piece, a line headed by the entry shows the natural chain unless it says otherwise.
UniProt Q92925, whole entry, looked up: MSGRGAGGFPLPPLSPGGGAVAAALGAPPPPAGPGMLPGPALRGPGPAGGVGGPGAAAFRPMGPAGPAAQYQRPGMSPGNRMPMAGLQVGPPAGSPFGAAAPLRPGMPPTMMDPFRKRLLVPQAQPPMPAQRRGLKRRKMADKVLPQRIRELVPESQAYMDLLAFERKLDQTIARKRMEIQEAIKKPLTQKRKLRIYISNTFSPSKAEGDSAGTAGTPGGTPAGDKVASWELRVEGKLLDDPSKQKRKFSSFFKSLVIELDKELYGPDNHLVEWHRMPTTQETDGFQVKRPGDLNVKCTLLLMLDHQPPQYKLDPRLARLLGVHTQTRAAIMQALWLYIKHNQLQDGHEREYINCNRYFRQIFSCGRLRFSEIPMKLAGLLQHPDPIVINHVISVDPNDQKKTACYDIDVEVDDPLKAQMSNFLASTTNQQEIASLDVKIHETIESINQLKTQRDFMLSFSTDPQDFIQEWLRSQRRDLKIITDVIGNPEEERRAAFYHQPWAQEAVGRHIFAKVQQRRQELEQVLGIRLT
UniProt Q9H0W8: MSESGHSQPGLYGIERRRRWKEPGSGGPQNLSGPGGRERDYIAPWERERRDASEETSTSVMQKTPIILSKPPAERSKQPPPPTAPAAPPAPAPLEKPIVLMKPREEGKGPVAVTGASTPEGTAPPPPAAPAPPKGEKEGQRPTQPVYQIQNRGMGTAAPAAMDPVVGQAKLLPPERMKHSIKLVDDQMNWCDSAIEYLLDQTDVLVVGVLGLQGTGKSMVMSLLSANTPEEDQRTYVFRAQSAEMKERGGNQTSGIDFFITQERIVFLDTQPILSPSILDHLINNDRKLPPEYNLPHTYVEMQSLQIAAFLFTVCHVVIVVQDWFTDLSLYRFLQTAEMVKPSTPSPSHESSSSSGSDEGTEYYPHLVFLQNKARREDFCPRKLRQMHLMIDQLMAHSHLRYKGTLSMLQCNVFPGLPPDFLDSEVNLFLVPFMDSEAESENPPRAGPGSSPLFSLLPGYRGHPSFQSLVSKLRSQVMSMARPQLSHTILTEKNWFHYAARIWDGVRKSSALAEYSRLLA
UniProt P35711: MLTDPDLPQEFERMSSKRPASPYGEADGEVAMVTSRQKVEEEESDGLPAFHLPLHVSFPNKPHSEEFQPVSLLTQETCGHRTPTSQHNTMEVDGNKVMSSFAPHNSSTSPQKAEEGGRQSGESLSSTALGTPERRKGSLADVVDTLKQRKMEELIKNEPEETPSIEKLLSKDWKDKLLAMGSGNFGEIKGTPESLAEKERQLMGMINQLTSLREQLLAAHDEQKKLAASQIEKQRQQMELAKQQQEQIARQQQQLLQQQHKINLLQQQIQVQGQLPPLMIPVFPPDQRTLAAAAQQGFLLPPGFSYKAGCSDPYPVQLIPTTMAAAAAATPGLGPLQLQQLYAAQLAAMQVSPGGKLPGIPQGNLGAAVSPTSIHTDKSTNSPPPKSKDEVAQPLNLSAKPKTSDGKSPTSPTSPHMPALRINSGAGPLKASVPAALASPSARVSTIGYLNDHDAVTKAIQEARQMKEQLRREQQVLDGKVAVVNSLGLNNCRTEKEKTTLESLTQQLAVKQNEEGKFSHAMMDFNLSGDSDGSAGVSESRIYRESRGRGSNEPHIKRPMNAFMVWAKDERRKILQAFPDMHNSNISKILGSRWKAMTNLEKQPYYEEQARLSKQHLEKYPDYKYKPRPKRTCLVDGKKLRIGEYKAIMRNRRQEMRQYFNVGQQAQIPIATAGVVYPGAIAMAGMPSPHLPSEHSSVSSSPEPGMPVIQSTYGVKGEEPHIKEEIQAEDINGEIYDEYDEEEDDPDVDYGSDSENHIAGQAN
UniProt P0C7P3: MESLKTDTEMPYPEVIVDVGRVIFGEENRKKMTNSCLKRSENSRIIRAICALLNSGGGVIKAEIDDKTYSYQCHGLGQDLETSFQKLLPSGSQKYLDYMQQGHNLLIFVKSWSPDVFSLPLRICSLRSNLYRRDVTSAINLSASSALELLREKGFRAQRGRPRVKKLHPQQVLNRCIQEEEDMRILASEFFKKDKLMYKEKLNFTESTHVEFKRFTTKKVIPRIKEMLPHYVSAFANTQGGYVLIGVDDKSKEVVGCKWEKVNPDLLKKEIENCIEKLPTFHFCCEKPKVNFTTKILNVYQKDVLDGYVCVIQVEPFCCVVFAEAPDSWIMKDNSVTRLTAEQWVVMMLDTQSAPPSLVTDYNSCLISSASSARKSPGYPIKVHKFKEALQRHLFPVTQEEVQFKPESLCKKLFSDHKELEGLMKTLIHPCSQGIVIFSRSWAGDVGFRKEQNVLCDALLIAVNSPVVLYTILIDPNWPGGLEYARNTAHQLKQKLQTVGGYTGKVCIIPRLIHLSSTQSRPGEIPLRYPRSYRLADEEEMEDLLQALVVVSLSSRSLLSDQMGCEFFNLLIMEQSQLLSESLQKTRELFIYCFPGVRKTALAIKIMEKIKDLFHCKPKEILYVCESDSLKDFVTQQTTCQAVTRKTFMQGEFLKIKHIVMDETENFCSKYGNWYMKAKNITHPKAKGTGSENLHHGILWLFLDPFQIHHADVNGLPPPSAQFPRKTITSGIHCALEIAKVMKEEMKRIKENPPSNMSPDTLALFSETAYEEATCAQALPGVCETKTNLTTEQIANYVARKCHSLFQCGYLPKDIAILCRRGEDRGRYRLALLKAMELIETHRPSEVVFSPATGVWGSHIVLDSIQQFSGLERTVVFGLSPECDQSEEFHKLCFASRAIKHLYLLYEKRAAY
UniProt Q92540: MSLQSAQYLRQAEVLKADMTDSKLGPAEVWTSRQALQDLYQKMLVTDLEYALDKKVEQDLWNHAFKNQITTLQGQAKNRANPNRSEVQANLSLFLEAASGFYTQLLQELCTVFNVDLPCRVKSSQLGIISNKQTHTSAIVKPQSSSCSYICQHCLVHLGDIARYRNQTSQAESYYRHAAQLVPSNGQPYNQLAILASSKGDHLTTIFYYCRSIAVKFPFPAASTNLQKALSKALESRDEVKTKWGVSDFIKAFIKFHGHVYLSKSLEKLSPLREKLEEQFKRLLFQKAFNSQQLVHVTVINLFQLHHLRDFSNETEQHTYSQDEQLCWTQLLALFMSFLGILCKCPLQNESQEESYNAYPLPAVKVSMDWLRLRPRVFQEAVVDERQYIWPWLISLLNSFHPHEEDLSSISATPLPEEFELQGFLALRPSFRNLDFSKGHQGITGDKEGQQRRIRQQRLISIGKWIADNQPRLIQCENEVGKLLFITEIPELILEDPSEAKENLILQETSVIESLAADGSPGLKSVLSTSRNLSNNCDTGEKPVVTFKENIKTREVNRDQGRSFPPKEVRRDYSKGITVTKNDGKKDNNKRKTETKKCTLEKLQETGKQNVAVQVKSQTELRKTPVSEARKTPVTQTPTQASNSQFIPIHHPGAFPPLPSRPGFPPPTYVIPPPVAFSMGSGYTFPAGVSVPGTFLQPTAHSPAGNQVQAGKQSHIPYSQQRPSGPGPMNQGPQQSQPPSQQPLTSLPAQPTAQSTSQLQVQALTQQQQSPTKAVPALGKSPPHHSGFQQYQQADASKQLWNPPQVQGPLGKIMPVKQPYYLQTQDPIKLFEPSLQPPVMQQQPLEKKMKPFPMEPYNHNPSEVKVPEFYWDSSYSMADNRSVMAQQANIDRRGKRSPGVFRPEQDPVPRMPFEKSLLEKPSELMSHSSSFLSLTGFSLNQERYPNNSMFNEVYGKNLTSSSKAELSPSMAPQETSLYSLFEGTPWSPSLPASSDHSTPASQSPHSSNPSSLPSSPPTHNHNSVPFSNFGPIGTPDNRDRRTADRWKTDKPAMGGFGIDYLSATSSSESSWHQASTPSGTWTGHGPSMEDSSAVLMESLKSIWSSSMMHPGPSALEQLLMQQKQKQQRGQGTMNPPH
UniProt B2RUZ4: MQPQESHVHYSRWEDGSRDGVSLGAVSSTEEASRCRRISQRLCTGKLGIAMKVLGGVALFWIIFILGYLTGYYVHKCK
UniProt Q15796, whole entry, looked up: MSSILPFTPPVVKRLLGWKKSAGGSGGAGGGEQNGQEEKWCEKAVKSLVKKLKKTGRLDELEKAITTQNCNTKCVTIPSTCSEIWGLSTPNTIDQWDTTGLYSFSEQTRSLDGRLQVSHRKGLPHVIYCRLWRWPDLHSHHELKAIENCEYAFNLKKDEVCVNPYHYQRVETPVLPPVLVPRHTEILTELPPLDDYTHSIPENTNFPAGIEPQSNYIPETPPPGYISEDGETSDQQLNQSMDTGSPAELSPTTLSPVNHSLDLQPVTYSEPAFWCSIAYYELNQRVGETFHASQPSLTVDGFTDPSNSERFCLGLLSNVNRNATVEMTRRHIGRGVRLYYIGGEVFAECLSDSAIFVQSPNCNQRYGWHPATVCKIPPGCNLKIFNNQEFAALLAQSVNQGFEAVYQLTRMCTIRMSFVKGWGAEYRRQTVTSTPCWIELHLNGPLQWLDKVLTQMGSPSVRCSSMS
UniProt Q7Z3B0: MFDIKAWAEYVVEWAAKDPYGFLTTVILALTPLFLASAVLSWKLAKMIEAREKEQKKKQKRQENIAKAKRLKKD
UniProt Q8WVI0: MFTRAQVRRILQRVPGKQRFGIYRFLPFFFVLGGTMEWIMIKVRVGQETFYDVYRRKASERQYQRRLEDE
UniProt Q13424: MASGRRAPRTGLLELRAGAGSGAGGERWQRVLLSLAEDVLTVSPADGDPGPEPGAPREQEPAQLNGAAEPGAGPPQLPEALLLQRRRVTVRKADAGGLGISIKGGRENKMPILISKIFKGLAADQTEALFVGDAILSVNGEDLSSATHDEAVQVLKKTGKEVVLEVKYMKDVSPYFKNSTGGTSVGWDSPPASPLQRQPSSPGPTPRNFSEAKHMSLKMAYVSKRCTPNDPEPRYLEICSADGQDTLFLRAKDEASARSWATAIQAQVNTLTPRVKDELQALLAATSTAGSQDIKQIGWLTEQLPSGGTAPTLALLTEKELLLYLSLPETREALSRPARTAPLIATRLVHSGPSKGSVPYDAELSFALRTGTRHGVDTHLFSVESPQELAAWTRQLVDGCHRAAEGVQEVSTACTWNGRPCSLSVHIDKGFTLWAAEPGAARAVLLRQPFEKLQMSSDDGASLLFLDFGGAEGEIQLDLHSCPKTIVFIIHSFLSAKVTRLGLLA
UniProt Q9H4I9: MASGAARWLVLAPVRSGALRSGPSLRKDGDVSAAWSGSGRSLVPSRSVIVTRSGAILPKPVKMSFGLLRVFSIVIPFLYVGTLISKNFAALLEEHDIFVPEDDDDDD
UniProt O75971: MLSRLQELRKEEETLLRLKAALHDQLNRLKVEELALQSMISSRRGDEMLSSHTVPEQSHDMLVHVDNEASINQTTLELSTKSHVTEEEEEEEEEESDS
UniProt O60271: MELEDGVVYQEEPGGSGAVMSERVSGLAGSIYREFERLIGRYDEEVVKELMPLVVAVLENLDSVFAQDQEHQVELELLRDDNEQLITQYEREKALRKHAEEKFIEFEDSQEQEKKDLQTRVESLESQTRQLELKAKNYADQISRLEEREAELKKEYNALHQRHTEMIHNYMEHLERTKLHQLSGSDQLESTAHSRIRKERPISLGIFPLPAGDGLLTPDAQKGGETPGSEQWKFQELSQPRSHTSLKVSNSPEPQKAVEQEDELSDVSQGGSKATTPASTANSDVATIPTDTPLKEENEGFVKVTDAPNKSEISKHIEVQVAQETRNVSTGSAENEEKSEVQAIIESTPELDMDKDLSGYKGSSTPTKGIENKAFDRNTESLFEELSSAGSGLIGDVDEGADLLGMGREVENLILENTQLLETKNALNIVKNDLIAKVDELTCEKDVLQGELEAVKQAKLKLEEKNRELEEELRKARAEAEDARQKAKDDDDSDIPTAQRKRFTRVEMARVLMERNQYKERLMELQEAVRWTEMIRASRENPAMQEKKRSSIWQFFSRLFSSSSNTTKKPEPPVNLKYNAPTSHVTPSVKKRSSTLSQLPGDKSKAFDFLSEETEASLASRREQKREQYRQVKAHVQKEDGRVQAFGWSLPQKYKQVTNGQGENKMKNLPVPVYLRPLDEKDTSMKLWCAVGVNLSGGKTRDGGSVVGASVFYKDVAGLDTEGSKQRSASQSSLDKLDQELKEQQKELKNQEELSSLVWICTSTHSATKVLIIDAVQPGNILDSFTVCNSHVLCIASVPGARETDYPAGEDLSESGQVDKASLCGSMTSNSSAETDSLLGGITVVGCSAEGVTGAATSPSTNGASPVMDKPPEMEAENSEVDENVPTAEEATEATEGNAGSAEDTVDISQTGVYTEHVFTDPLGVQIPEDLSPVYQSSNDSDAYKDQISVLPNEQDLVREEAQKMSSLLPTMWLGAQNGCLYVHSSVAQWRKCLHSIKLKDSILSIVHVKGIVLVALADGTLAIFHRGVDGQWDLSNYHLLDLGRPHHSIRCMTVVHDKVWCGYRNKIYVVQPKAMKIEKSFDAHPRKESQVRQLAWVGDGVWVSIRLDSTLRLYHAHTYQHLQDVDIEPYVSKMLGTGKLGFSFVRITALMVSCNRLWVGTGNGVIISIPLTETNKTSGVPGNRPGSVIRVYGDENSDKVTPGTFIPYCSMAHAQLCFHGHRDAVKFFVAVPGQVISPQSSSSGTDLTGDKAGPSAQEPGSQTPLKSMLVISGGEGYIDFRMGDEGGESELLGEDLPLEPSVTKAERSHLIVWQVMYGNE

Compound: CC1=C(C2=C(C=C1)C(=O)C3=CC=CC=C3N2CCCN)C
Assay: log2 fold change, soluble protein after heating vs DMSO (PISA); higher = thermal stabilisation; K562 cells, 10 uM, 30 min; active = over 0.2 and 3.5 SD of the protein, either way, in both replicates (recomputed)
Procedure, shortened: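 Values are thermal stability changes relative to control samples and are taken from duplicates. They are stated as log2 fold changes. Before quantification by TMTpro 16plex LC-MS/MS with equalised channel sums, K562 cells at 2×10^6 cells/mL were treated with 10 μM compound for 30 min, heated in aliquots for 3 min across 48°C-58°C, pooled, extracted in PBS with 0.5% NP-40 at 4°C, and centrifuged at 21,000xg for 90 min to give the soluble supernatant.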

SMARCD2 (UniProt Q92925) was tested. Which log2 fold change did it give?
The log2 fold change was inactive: 0.076.

For SMPD4 isoform 2 (UniProt Q9NXE4), which log2 fold change is on record?
The log2 fold change was inactive: 0.115.

With SMG9 (UniProt Q9H0W8) as the target, how does the log2 fold change read?
Its log2 fold change is inactive: 0.153.

For SOX5 (UniProt P35711), which log2 fold change is on record?
The log2 fold change was inactive: -0.081.

How did the log2 fold change turn out when SLFN14 (UniProt P0C7P3) was run?
The log2 fold change was inactive: -0.715.

How did the log2 fold change turn out when SMG7 isoform 4 (UniProt Q92540) was run?
Its log2 fold change is inactive: 0.056.

How did the log2 fold change turn out when SMIM1 (UniProt B2RUZ4) was run?
The log2 fold change was inactive: -0.077.

For SMCR8 (UniProt Q8TEV9), which log2 fold change is on record?
The log2 fold change was inactive: 0.038.

For SMAD2 (UniProt Q15796), which log2 fold change is on record?
The log2 fold change was inactive: 0.079.

How did the log2 fold change turn out when SNX27 (UniProt Q96L92) was run?
Its log2 fold change is inactive: -0.02.

For SMIM15 (UniProt Q7Z3B0), which log2 fold change is on record?
Its log2 fold change is inactive: 0.007.

How did the log2 fold change turn out when SLC9A1 (UniProt P19634) was run?
Its log2 fold change is inactive: -0.1.

Which log2 fold change does the source give for SMIM4 (UniProt Q8WVI0) here?
The log2 fold change was inactive: 0.068.

Which log2 fold change does the source give for SNTA1 (UniProt Q13424) here?
Its log2 fold change is inactive: -0.029.

With SP4 (UniProt Q02446) as the target, how does the log2 fold change read?
Its log2 fold change is inactive: -0.063.

SNX15 (UniProt Q9NRS6) was tested. Which log2 fold change did it give?
Its log2 fold change is inactive: -0.016.

How did the log2 fold change turn out when SMDT1 (UniProt Q9H4I9) was run?
Its log2 fold change is inactive: 0.027.

How did the log2 fold change turn out when SNAPC5 (UniProt O75971) was run?
The log2 fold change was inactive: 0.132.

For SNRPD2 (UniProt K7EJB5), which log2 fold change is on record?
The log2 fold change was inactive: 0.095.

For SPAG9 isoform 4 (UniProt O60271), which log2 fold change is on record?
The log2 fold change was inactive: -0.243.

For SNX12 isoform 1 (UniProt Q9UMY4), which log2 fold change is on record?
The log2 fold change was inactive: 0.
